# Reference: publication PMC7862700
# The entries are a selection whose mix differs from that of the whole data set. At the low end of the ranking the order means little.
# Target: T1, ETV3 (UniProt P41162-2)
# T1 sequence: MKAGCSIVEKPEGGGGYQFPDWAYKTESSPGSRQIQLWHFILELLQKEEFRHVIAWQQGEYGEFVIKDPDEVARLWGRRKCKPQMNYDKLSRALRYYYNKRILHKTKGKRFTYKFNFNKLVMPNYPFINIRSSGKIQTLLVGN
# Experiment: DAPPL (digital affinity profiling via proximity ligation, sequencing)
# Conditions: 10 mM Tris-HCl pH 7.5, 50 mM NaCl, 1 mM DTT, 4% glycerol, room temperature, 30 min; GST-TFs on glutathione beads, 16-mer random dsDNA library, 0.1% …; high values mean tight binding; double strand, one strand shown; scale: fold enrichment (6-mer frequency, TF over GST control)
row,Sequence,binding signal
1,TTTGAT,1.32
2,CGCACT,1.39
3,CAAGAA,0.99
4,TAAATT,1.21
5,TGCCGA,1.22
6,TAGCTT,1.16
7,ACGGAT,1.3
8,TATACG,1.3
9,CTCTCT,1.68
10,AGCCTT,1.18
11,TTGATC,1.26
12,CAATAC,1.29
13,CTTCTC,1.31
14,TGTAAG,1.17
15,GCCGAA,0.97
16,AATCCG,1.66
17,CTGCAG,1.07
18,ACTCTG,1.27
19,TCCTGC,1.73
20,ATTTAA,1.13

# Quoted at random: 3 records from the list
row,Sequence,binding signal
11,TTGATC,1.26
17,CTGCAG,1.07
10,AGCCTT,1.18

# Later entries:

row,Sequence,binding signal
1,ATCCAC,1.14
2,TCGACG,0.994
3,TGTACC,1.35
4,ATTTTG,1.1
5,AATTAA,1.25
6,TTCTCT,1.3
7,TCTGTA,1.25
8,ACTAAT,1.12
9,GGATGC,1.3
10,TACATA,1.21
11,GTGTTT,1.15
12,TAGCAG,0.992
13,TGATCC,1.24
14,ACCCCC,1.21
15,TGGCAT,1.23
16,GGTTCC,1.71
17,CCCCTG,1.07
18,ATGGTG,1.04
19,GTCTAA,0.963
